Reference: PubChem BioAssay AID651640 (Broad Institute, 2012)
The campaign covered roughly 350,000 compounds. About 6,000 (1.7%) were called active. Inconclusive results, whose numbers are uncertain, are shown with a selection of clear calls. Cut-off read from the data, not from the text of the source: active = CPE inhibition above about 20% (passing the limit was not always enough); inconclusive = no clear call, values can overlap the other calls; tested in BHK-21 cells.

Test: protection of cells from dengue 2 killing – plate reader, single concentration, primary screen (AID 651640);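 note: 0% = median of neutral control wells and 100% = median of positive control wells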
Conditions: DENV2-infected cells, cytopathic effect rescue, at 9.99 µM, hits give high values

Row | Compound | CPE inhibition
1 | CC(=O)c1ccc(OCC(=O)OCC(=O)N(CC(C)C)c2c(N)n(Cc3ccccc3)c(=O)[nH]c2=O)cc1 | inconclusive: 56.7%
2 | COc1cc2c(cc1OC)C(=O)N1[C@H]3c4ccccc4OC[C@@H]3[C@H](c3ccccc3)[C@]1(C)C(=O)N2 | inconclusive: 22%
3 | COc1cc(/C=N/NC(=O)c2ccc(NC(=O)C3CC3)cc2)ccc1OC(C)=O | inconclusive: 42.5%
4 | CCc1cc(Cn2nc(-c3ccccc3)cc2C(=O)O)on1 | inactive: -3.2%
5 | C(=C\c1nc(-c2ccccc2)no1)/c1ccccc1 | inconclusive: 31.5%
6 | O=C(c1ccc(Br)cc1)C(CN1CCOCC1)c1ccccc1 (centres undefined) | inactive: -5.5%
7 | O=C(NNC(=O)c1cc([N+](=O)[O-])ccc1Cl)c1cccs1 | inconclusive: 25.8%
8 | CC(=O)N1N=C(c2ccccc2)CC1c1ccc(F)cc1 (centres undefined) | inconclusive: 21.4%
9 | COc1cccc2sc3cc(NCc4ccc(C)o4)ccc3c(=O)c12 | active: 56.3%
10 | COCCCNC(=O)c1c(N)n(-c2ccccc2)c2nc3ccccc3nc12 | inconclusive: 39.2%
11 | CC(C)C#Cc1ccc2c(c1)O[C@@H](CN(C)C(=O)c1cccc(F)c1)[C@H](C)CN([C@H](C)CO)S2(=O)=O | inactive: -6.73%
12 | Cc1cc(C)n2nc(SCC(=O)N3CCOCC3)nc2n1 | inconclusive: 47.7%
13 | COc1ccc(S(=O)(=O)Nc2ccc3c(c2)C(=O)N([C@@H](C)CO)C[C@H](C)[C@@H](CN(C)C(=O)C2CCCCC2)OCCCC[C@@H](C)O3)cc1 | inactive: -13.9%
14 | CN(C)c1ccc(CNc2nc3cc(-c4ccc(F)cc4)sc3c(=O)n2C)cc1 | inconclusive: 46.6%
15 | N#C[C@H]1[C@H](c2ccc(C#CC3CCCCC3)cc2)[C@@H](CO)N1C(=O)Cc1ccccn1 | active: 86.8%
16 | Cc1ccccc1-c1ccc2c(c1)O[C@H](CN(C)C(=O)Nc1ccccc1)[C@@H](C)CN([C@H](C)CO)S2(=O)=O | inactive: 14.8%
17 | Cc1c(C(=O)O)oc2ccc(S(=O)(=O)N3CCCC3)cc12 | inconclusive: 28.8%
18 | C[C@H]1CN([C@@H](C)CO)S(=O)(=O)c2ccc(C#CC3CC3)cc2O[C@H]1CN(C)C(=O)c1cccc(F)c1 | inconclusive: 27.4%
19 | O=C(c1cnccn1)N1CC(=O)N2[C@@H](CO)[C@@H](c3ccc(C#CC4CCCCC4)cc3)[C@@H]2C1 | inactive: 0.28%
20 | COc1ccc(/C=C/C(=O)OCC(=O)N2c3ccccc3CC2C)c(OC)c1 (centres undefined) | inconclusive: 23.3%
21 | C[C@@H]1CN([C@H](C)CO)C(=O)c2cc(NS(=O)(=O)c3cn(C)cn3)ccc2O[C@H]1CN(C)S(C)(=O)=O | inactive: -2.95%
22 | Cc1ccc(C2=NC(=O)/C(=C/c3cc(O)c(O)c(Br)c3)S2)cc1 | inconclusive: 33.1%
23 | Cc1nc2cc(NC(=O)c3ccc([N+](=O)[O-])s3)ccc2s1 | active: 72.8%
24 | COc1cc(C)ccc1OCc1cc(C(=O)N2CCCCCCC2)no1 | inconclusive: 22.4%
25 | Cn1c(NCc2cccnc2)nc2cc(-c3cccc(C(=O)NCCO)c3)sc2c1=O | inconclusive: 34.3%

Row | Compound | CPE inhibition
26 | C[C@@H]1CN([C@H](C)CO)C(=O)Cc2cc(NS(=O)(=O)c3cn(C)cn3)ccc2O[C@@H]1CN(C)Cc1ccccc1 | inactive: -4.71%
27 | C[C@@H]1CCCCO[C@H](CN(C)S(=O)(=O)c2ccc(F)cc2)[C@@H](C)CN([C@@H](C)CO)C(=O)c2cc(NS(C)(=O)=O)ccc2O1 | active: 29.4%
28 | CCOC(=O)c1sc(NC(=O)c2cccc(S(=O)(=O)N3c4ccccc4CC3C)c2)cc1C (centres undefined) | inconclusive: 23.2%
29 | C[C@@H]1CNCCN1c1ccc(N2CCN(Cc3ccccc3)[C@@H](C)C2)c(C#N)c1 | inconclusive: 21.8%
30 | CC12CCC(=O)N1C(C(=O)NCc1ccccc1Cl)CS2 (centres undefined) | inconclusive: 85.4%
31 | COc1ccc(NC(=O)Nc2ccc3c(c2)C(=O)N([C@@H](C)CO)C[C@H](C)[C@H](CN(C)C(=O)Nc2cccc4ccccc24)O3)cc1 | active: 31.1%
32 | O=C1c2ccccc2C(=O)N1CC1CCN(Cc2ccc(OCCO)cc2)CC1 | inactive: -4.3%
33 | CCOC(=O)[C@]12CCCC=C1N(Cc1ccco1)C(=O)[C@H](CC(=O)NCCc1ccccc1OC)C2 | inconclusive: 34.6%
34 | O=C(Cc1cccc(NC(=O)C2CCCN(C(=O)C3CCCC3)C2)c1)Nc1cccc(C(=O)N2CCCCC2)c1 (centres undefined) | inconclusive: 72.2%
35 | CCOC(=O)c1ccsc1NC(=O)CCS(=O)(=O)c1ccccc1 | inactive: 5.04%
36 | O=c1c(-c2ccc(O)cc2O)coc2cc(O)cc(O)c12 | inconclusive: 67.6%
37 | Cc1onc(-c2ccccc2)c1C(=O)NC1CC1 | inconclusive: 21.3%
38 | O=C(CC(F)(F)F)N1C[C@@H]2[C@H](c3ccccc31)[C@@H](CO)N2C(=O)c1cccnc1 | active: 22.7%
39 | COc1ccccc1C(=O)N1C[C@H]2[C@@H](c3ccccc31)[C@@H](CO)N2Cc1ccc(F)cc1 | inactive: -0.194%
40 | O=C(NC1CCCCC1)[C@@H]1[C@@H](CO)[C@@H]2Cn3c(cccc3=O)[C@@H]2N1CC1CCCC1 | inactive: -0.992%
41 | O=C(CN(Cc1ccccc1)S(=O)(=O)c1ccc(Br)cc1)NCC1CCCO1 (centres undefined) | inconclusive: 26.8%
42 | CN1C(=O)c2cc(NC(=O)C3CCCCC3)ccc2OC[C@@H]2O[C@H](CC(=O)NCc3ccccc3F)CC[C@@H]21 | inactive: -2.15%
43 | CCOC(=O)CNC(=O)N(C)[C@H]1C[C@H]2c3[nH]c4ccccc4c3CCN2C(=O)[C@H]1[C@H](C)O | active: 23.5%
44 | CC(C)NC(=O)Nc1ccc2c(c1)C(=O)N([C@@H](C)CO)C[C@H](C)[C@@H](CN(C)Cc1ccc3c(c1)OCO3)OCCCC[C@@H](C)O2 | inactive: 7.54%
45 | O=C(O)CCCC[n+]1ccccc1 | inconclusive: 64.1%
46 | O=C(/C=C/c1ccco1)NC(=S)Nc1cccc([N+](=O)[O-])c1 | inconclusive: 43.8%
47 | Cc1ccc(C)c(S(=O)(=O)N2CCN(C(=O)CCC(=O)c3cc(C)sc3C)CC2)c1 | inconclusive: 60.6%
48 | CO[C@@H]1CN(C)C(=O)c2ccc(NC(=O)C3CCC3)cc2OC[C@H](C)NC[C@@H]1C | active: 34.3%
49 | COc1ccc2c(c1)[C@H]1[C@H](CO2)[C@H](c2ccccc2)[C@]2(C)C(=O)Nc3cc(OC)c(OC)cc3C(=O)N12 | inconclusive: 66.2%
50 | Cc1ccc(CCN2CC(C(=O)NCCc3ccccc3)CC2=O)cc1 (centres undefined) | active: 34.2%

A different layout for 17 compounds above.
Row	Compound	CPE inhibition
32	O=C1c2ccccc2C(=O)N1CC1CCN(Cc2ccc(OCCO)cc2)CC1	inactive: -4.3%
33	CCOC(=O)[C@]12CCCC=C1N(Cc1ccco1)C(=O)[C@H](CC(=O)NCCc1ccccc1OC)C2	inconclusive: 34.6%
34	O=C(Cc1cccc(NC(=O)C2CCCN(C(=O)C3CCCC3)C2)c1)Nc1cccc(C(=O)N2CCCCC2)c1 (centres undefined)	inconclusive: 72.2%
35	CCOC(=O)c1ccsc1NC(=O)CCS(=O)(=O)c1ccccc1	inactive: 5.04%
36	O=c1c(-c2ccc(O)cc2O)coc2cc(O)cc(O)c12	inconclusive: 67.6%
37	Cc1onc(-c2ccccc2)c1C(=O)NC1CC1	inconclusive: 21.3%
38	O=C(CC(F)(F)F)N1C[C@@H]2[C@H](c3ccccc31)[C@@H](CO)N2C(=O)c1cccnc1	active: 22.7%
39	COc1ccccc1C(=O)N1C[C@H]2[C@@H](c3ccccc31)[C@@H](CO)N2Cc1ccc(F)cc1	inactive: -0.194%
40	O=C(NC1CCCCC1)[C@@H]1[C@@H](CO)[C@@H]2Cn3c(cccc3=O)[C@@H]2N1CC1CCCC1	inactive: -0.992%
41	O=C(CN(Cc1ccccc1)S(=O)(=O)c1ccc(Br)cc1)NCC1CCCO1 (centres undefined)	inconclusive: 26.8%
42	CN1C(=O)c2cc(NC(=O)C3CCCCC3)ccc2OC[C@@H]2O[C@H](CC(=O)NCc3ccccc3F)CC[C@@H]21	inactive: -2.15%
43	CCOC(=O)CNC(=O)N(C)[C@H]1C[C@H]2c3[nH]c4ccccc4c3CCN2C(=O)[C@H]1[C@H](C)O	active: 23.5%
44	CC(C)NC(=O)Nc1ccc2c(c1)C(=O)N([C@@H](C)CO)C[C@H](C)[C@@H](CN(C)Cc1ccc3c(c1)OCO3)OCCCC[C@@H](C)O2	inactive: 7.54%
45	O=C(O)CCCC[n+]1ccccc1	inconclusive: 64.1%
46	O=C(/C=C/c1ccco1)NC(=S)Nc1cccc([N+](=O)[O-])c1	inconclusive: 43.8%
47	Cc1ccc(C)c(S(=O)(=O)N2CCN(C(=O)CCC(=O)c3cc(C)sc3C)CC2)c1	inconclusive: 60.6%
48	CO[C@@H]1CN(C)C(=O)c2ccc(NC(=O)C3CCC3)cc2OC[C@H](C)NC[C@@H]1C	active: 34.3%

Continued:

Row | Compound | CPE inhibition
51 | CN(C)C(CNC(=O)c1ccco1)c1cccs1 (centres undefined) | inconclusive: 34.5%
52 | C[C@H]1CN([C@@H](C)CO)C(=O)Cc2cc(NS(C)(=O)=O)ccc2O[C@@H]1CN(C)Cc1ccc(Oc2ccccc2)cc1 | inactive: 9.03%
53 | C[C@@H]1CN([C@H](C)CO)C(=O)c2cccc(NC(=O)Nc3ccc(C(F)(F)F)cc3)c2O[C@@H]1CN(C)Cc1ccc(-c2ccccc2)cc1 | inconclusive: 31.9%
54 | CN(C)CC(=O)Nc1ccc2c(c1)[C@H]1C[C@H](CC(=O)NCc3ccc(Cl)cc3)O[C@H](CO)[C@H]1O2 | inactive: -1.48%
55 | CC=Cc1ccc2n(c1=O)C[C@H]1[C@H](CO)[C@@H](C(=O)N(C)C)[C@@H]2N1CCc1ccccc1 (mixture of isomers) | inactive: -0.639%
56 | Cc1ccc([C@@H]2CC=C(C(=O)O)[C@H](c3ccc(F)cc3)N2S(=O)(=O)c2ccccc2C)cc1 | inconclusive: 31.1%
57 | CC(C)NC(=O)c1ccc(-c2ccc(F)c(F)c2)c2ccoc12 | inconclusive: 29.5%
58 | CCCn1c(=O)c2ccccc2n2c(SCC(N)=O)nnc12 | inconclusive: 35.5%
59 | O=C(C1CC1)N1CC2(C1)[C@@H](c1ccccc1)[C@@H](CO)N2C(=O)c1cccnc1 | inactive: -11.9%
60 | CCCCn1c(CCNC(=O)CC)nc2ccccc21 | inconclusive: 32.8%
61 | CCN1CCCc2cc(CN(CCN3CCOCC3)C(=S)Nc3ccc(C)cc3)ccc21 | inconclusive: 21.9%
62 | CCC[C@@H](O)c1cc2cc(OC)c(OC)cc2c(=O)o1 | inconclusive: 35.3%
63 | CN(C)S(=O)(=O)N1CCc2ccc(NC(=O)C3CCCO3)cc2C1 (centres undefined) | inconclusive: 42.7%
64 | CCN(CC)C(=O)Cn1cc(S(=O)(=O)CC(=O)Nc2ccccc2C)c2ccccc21 | inconclusive: 29.1%
65 | COc1cccc(C(NC(C)=O)c2nc(-c3ccc4c(c3)OCO4)cs2)c1 (centres undefined) | inconclusive: 42.5%
66 | CCN(CC)CCCNc1ccc(-c2nnc(-c3ccc(OCC(C)C)cc3)o2)cn1 | inconclusive: 38.7%
67 | O=C(NNC(=S)NCc1ccccc1)c1ccccc1OC(F)F | inconclusive: 21.2%
68 | Cc1ccc2nc(C)cc(C(=O)N3CCCC(CO)(Cc4ccccc4C)C3)c2c1 (centres undefined) | inconclusive: 20.6%
69 | CCC(C)[C@H](NC(=O)[C@@H]1Cc2c([nH]c3ccccc23)C2c3ccccc3C(=O)N21)C(=O)NCC1CCCO1 (some centres undefined) | inconclusive: 51.1%
70 | C#CCNC(=O)C1=C[C@@H](C(C)(C)C)C[C@@H](OCCCCO)O1 | inactive: -3.22%
71 | C[C@@H]1CN([C@@H](C)CO)S(=O)(=O)c2ccc(C#CC3(O)CCCC3)cc2O[C@@H]1CN(C)C | inactive: -6.27%
72 | O=C(CN1C(=O)NC2(CCCC2)C1=O)N1CCN(c2ccccc2Cl)CC1 | inconclusive: 27.9%
73 | C[C@H](O)c1[nH]c2cc(F)ccc2c1[C@H](C)O | inconclusive: 65.2%
74 | COCC(=O)N(C[C@@H]1[C@@H](c2ccccc2)[C@@H](CO)N1C(=O)NC(C)C)C(C)C | inactive: -5.12%
